For two molecules, binding results are on record in patent EP4792891A2 (LTZ Therapeutics Inc., dated 2026).

No constants are given. Whether binding was seen depends on the method and setting. Some results given as binding are weak or reduced against the parent protein; the word gives no strength. For some of these results: Where a sequence is shown, tags or fusion partners need not be part of it.

In assay [1] the target is T1, Human CLEC5A (C-type lectin domain family 5 member A) on the cell surface (human) (UniProt Q9NY25).
T1 sequence: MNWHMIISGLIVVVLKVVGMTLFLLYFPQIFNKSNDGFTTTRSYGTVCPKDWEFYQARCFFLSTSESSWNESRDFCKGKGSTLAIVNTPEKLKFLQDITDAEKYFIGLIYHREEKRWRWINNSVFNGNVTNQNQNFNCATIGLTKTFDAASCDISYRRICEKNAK
The assay can be described thus: flow cytometry on human M0 macrophages.

Assay [2] concerns the target T2, recombinant human CLEC5A, His Tag (ACROBiosystems, Cat#: NC1-H52H4) (human) (UniProt Q9NY25).
T2 sequence: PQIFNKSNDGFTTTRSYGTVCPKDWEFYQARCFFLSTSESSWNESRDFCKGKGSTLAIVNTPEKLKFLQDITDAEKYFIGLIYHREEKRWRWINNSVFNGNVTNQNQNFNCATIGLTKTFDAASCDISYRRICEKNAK
Put plainly: BLI, antibody captured on anti-human IgG Fc probe, CLEC5A at 11 nM, 1:1 model. A general note: In BLI a coated tip is dipped into the sample, and binding shifts an interference pattern.

B1: chimeric anti-CLEC5A antibody 3A7 (antibody, human IgG1, V domains shown)
VH: QSLEESGGDLVKPGASLTLTCTASGFSFSGMYWICWVRQAPGKGLEWIACIYTGSSTTGYASWAKGRFTISKTSSTTVTLQMTSLTAADTATHFCASPYGDSSHYRGLNLWGPGTLVTVSS
VL: AVVMTQTPASVEAAVGGTVTINCQASQRINNYLSWFQQKPGQPPKLLIYGAATLASGVPSRFKGSGSGTEYTLTISDLEPADAATYYCQCTYGIPSSNYGFGGGTEVVVK
Turning to B1, the binding result in assay [1] and in assay [2] was “binds” each time.

B2: chimeric anti-CLEC5A antibody 5C7 (antibody, V domains shown)
VH: QSLEESGGDLVKPGASLTLTCTASGFSFSRSSYMCWVRQAPGKGLEWIGCLSVGDGHTYYASWAKGRFTISKTSSTSVTLQMTRLTAADTATYFCARAPSYSGDGGHGYDLWGPGTLVTVSS
VL: AIVMTQTPSSKSVPVGDTVTINCQASESVDRNNRLAWFQQKPGQPPKLLIYTTSTLASGVPSRFKGSGSGTHFTLTISDVVPDDAATYYCAGYRGAHTDGDAFGGGTEVVVK
For B2, the binding result in assay [1] and in assay [2] was “binds” in each case.
